Counter-ions that a name gives are not always drawn. ± gives the standard deviation of the averaged measurements. Some of the results follow. The data scatter; read single values as rough.

In assay [1] the test system is hAMSC donor 1. Briefly: Hoechst total cell count ratio vs vehicle control; higher = more cells (less toxicity).
Assay [2] relates to hAMSC donor 2. Described as above.
The test system of assay [3] is hAMSC donor 1. Briefly: transgenic luciferase activity (RLU/mg protein) fold change vs vehicle control (ratio); higher = more transgene expression. Conditions: priming compound concentration 13 µM.
In assay [4] the test system is hAMSC donor 1. Briefly: transfection efficiency (EGFP+ cells / Hoechst count) fold change vs vehicle control (ratio); higher = enhanced transfection.
For assay [5], the system named is hAMSC donor 2. Described as above.
In assay [6] the test system is hAMSC donor 2. The assay can be described thus: transgenic luciferase activity (RLU/mg protein) fold change vs vehicle control (ratio); hAMSC are human adipose-derived mesenchymal stem cells given an EGFP-luciferase plasmid by lipofection; higher = more transgene expression. Conditions: priming compound concentration 13 µM.
Setting [7] is: priming compound concentration 0.2 µM.
[8] abbreviates: priming compound concentration 1.7 µM.
Where [9] appears, read: priming compound concentration 13 µM.

As for `CC[C@@H](C(N)=O)N1CCCC1=O` [Levetiracetam], the “Hoechst total cell count ratio” value in the assay with hAMSC donor 1 [1] (setting [7]) was found to be 1.14 ± 0.14; in the assay on hAMSC donor 1 [1] (setting [8]), 1.04 ± 0.034; with hAMSC donor 1 [1] (setting [9]), 1.16 ± 0.046; in the assay on hAMSC donor 2 [2] (setting [7]), 1.26 ± 0.33; in the assay on hAMSC donor 2 [2] (setting [8]), 1.16 ± 0.064; in the assay with hAMSC donor 2 [2] (setting [9]) it was 1.48 ± 0.044. Also, the transgenic luciferase activity in the assay with hAMSC donor 1 [3] worked out at 0.724 ± 0.33. In addition, the transfection efficiency was found to be 1.65 ± 1.1 in the assay with hAMSC donor 1 [4] (setting [7]); 1.2 ± 0.12 in the assay with hAMSC donor 1 [4] (setting [8]); 0.763 ± 0.23 in the assay on hAMSC donor 1 [4] (setting [9]); 1.1 ± 0.41 with hAMSC donor 2 [5] (setting [7]); 1.11 ± 0.28 in the assay with hAMSC donor 2 [5] (setting [8]); 0.753 ± 0.19 with hAMSC donor 2 [5] (setting [9]).
`CC(C)[C@]12O[C@H]1[C@@H]1O[C@]13[C@]1(O[C@H]1C[C@H]1C4=C(CC[C@@]13C)C(=O)OC4)[C@@H]2O` [Triptolide]: the “Hoechst total cell count ratio” value worked out at 0.639 ± 0.025 in the assay on hAMSC donor 1 [1] (setting [7]); 0.42 ± 0.088 with hAMSC donor 1 [1] (setting [8]); 0.428 ± 0.053 with hAMSC donor 1 [1] (setting [9]); 0.318 ± 0.067 in the assay on hAMSC donor 2 [2] (setting [7]); 0.322 ± 0.061 with hAMSC donor 2 [2] (setting [8]); 0.198 ± 0.008 in the assay with hAMSC donor 2 [2] (setting [9]). Also, in the assay on hAMSC donor 2 [6], the transgenic luciferase activity is 0.00467 ± 0.0049. The transfection efficiency is 0.35 ± 0.025 in the assay on hAMSC donor 1 [4] (setting [7]); 0.273 ± 0.16 in the assay on hAMSC donor 1 [4] (setting [8]); 0.127 ± 0.092 with hAMSC donor 1 [4] (setting [9]); 0.781 ± 0.32 in the assay with hAMSC donor 2 [5] (setting [7]); 0.284 ± 0.19 in the assay on hAMSC donor 2 [5] (setting [8]); 0.0734 ± 0.1 with hAMSC donor 2 [5] (setting [9]).
With `C[C@]12CCC(=O)C[C@@H]1CC[C@@H]1[C@@H]2CC[C@@]2(C)[C@H]1CC[C@]2(C)O` [Mestanolone], the “Hoechst total cell count ratio” value in the assay with hAMSC donor 1 [1] (setting [7]) was 1.48 ± 0.028; in the assay on hAMSC donor 1 [1] (setting [8]), 1.13 ± 0.17; in the assay with hAMSC donor 1 [1] (setting [9]), 1.84 ± 0.24; with hAMSC donor 2 [2] (setting [7]), 1 ± 0.071; in the assay on hAMSC donor 2 [2] (setting [8]) it was 1.02 ± 0.046; in the assay with hAMSC donor 2 [2] (setting [9]), 0.94 ± 0.017. In addition, the transgenic luciferase activity in the assay with hAMSC donor 2 [6] was 0.875 ± 0.12. For the same molecule, the transfection efficiency in the assay with hAMSC donor 1 [4] (setting [7]) was found to be 1.04 ± 0.14; with hAMSC donor 1 [4] (setting [8]), 1.09 ± 0.2; in the assay with hAMSC donor 1 [4] (setting [9]), 0.586 ± 0.24; in the assay on hAMSC donor 2 [5] (setting [7]) it was 0.912 ± 0.072; in the assay with hAMSC donor 2 [5] (setting [8]) it was 1.2 ± 0.1; in the assay with hAMSC donor 2 [5] (setting [9]), 0.923 ± 0.13.
With `CNCC(O)c1ccc(O)cc1` (stereo not drawn) [Synephrine], the “Hoechst total cell count ratio” value with hAMSC donor 1 [1] (setting [7]) stood at 1.41 ± 0.1; in the assay on hAMSC donor 1 [1] (setting [8]), 1.26 ± 0.31; in the assay on hAMSC donor 1 [1] (setting [9]), 0.979 ± 0.15; in the assay on hAMSC donor 2 [2] (setting [7]), 1.22 ± 0.21; with hAMSC donor 2 [2] (setting [8]), 0.962 ± 0.12; in the assay on hAMSC donor 2 [2] (setting [9]), 1.3 ± 0.14. The transgenic luciferase activity with hAMSC donor 1 [3] stood at 1.07 ± 0.27. Further, the transfection efficiency in the assay on hAMSC donor 1 [4] (setting [7]) came out at 0.842 ± 0.18; in the assay with hAMSC donor 1 [4] (setting [8]) it was 1.03 ± 0.091; in the assay on hAMSC donor 1 [4] (setting [9]) it was 1.19 ± 0.27; with hAMSC donor 2 [5] (setting [7]), 1.2 ± 0.31; in the assay with hAMSC donor 2 [5] (setting [8]), 1.11 ± 0.12; in the assay on hAMSC donor 2 [5] (setting [9]), 0.966 ± 0.19.
For `Oc1cc2c(cc1O)[C@H]1c3ccccc3CN[C@@H]1CC2` (racemic) [Dihydrexidine hydrochloride], the “Hoechst total cell count ratio” value in the assay with hAMSC donor 1 [1] (setting [7]) turned out to be 1.65 ± 0.074; in the assay with hAMSC donor 1 [1] (setting [8]) it was 1.21 ± 0.088; in the assay with hAMSC donor 1 [1] (setting [9]), 2.13 ± 0.22; with hAMSC donor 2 [2] (setting [7]), 1.2 ± 0.3; in the assay on hAMSC donor 2 [2] (setting [8]), 1.32 ± 0.064; with hAMSC donor 2 [2] (setting [9]), 1.14 ± 0.1. Also, the transgenic luciferase activity in the assay with hAMSC donor 2 [6] was 0.784 ± 0.11. Moreover, the transfection efficiency is 0.8557 ± 0.0046 in the assay on hAMSC donor 1 [4] (setting [7]); 1.41 ± 0.062 in the assay with hAMSC donor 1 [4] (setting [8]); 0.388 ± 0.085 in the assay on hAMSC donor 1 [4] (setting [9]); 0.914 ± 0.13 in the assay with hAMSC donor 2 [5] (setting [7]); 1.02 ± 0.18 in the assay with hAMSC donor 2 [5] (setting [8]); 0.792 ± 0.093 with hAMSC donor 2 [5] (setting [9]).
`COc1cc2c(cc1OC)[C@@]13CCN4CC5=CCO[C@H]6CC(=O)N2[C@H]1[C@H]6[C@H]5C[C@H]43` [Brucine]: the “Hoechst total cell count ratio” value is 1.333 ± 0.0021 in the assay on hAMSC donor 1 [1] (setting [7]); 1.31 ± 0.1 in the assay on hAMSC donor 1 [1] (setting [8]); 1.33 ± 0.036 in the assay on hAMSC donor 1 [1] (setting [9]); 1.21 ± 0.24 in the assay with hAMSC donor 2 [2] (setting [7]); 1.23 ± 0.036 in the assay with hAMSC donor 2 [2] (setting [8]); 1.3 ± 0.25 in the assay with hAMSC donor 2 [2] (setting [9]). In the assay with hAMSC donor 1 [3], the transgenic luciferase activity was 0.729 ± 0.5. Moreover, the transfection efficiency in the assay with hAMSC donor 1 [4] (setting [7]) came out at 1.06 ± 0.036; with hAMSC donor 1 [4] (setting [8]), 1.52 ± 0.52; in the assay with hAMSC donor 1 [4] (setting [9]), 0.714 ± 0.28; in the assay on hAMSC donor 2 [5] (setting [7]) it was 0.891 ± 0.25; in the assay with hAMSC donor 2 [5] (setting [8]), 1.14 ± 0.072; with hAMSC donor 2 [5] (setting [9]), 0.694 ± 0.14.

The values are drawn from the supplement of paper PMC7238544.
